# Laboratory results from patent publication US11897856B1, “N-(Naphthalen-1-ylcarbamothioyl)furan-2-carboxamide as an eco-friendly insecticidal agent against Spodoptera littoralis (boisd.)” (KING FAISAL UNIVERSITY, priority 2023, dated 2024).
# Tested on: Spodoptera littoralis
# Test: Insecticidal bioassay screening (castor leaf dip, larval mortality)
# Type: in vivo
# Details: after 72 hrs of treatment, slope of concentration-mortality (LDP) line
# Protocol: Five concentrations (200, 100, 50, 25, 12.5 ppm) were designed for this synthetic compound and the reference Diflubenzuron compound as the dynamic ingredients based on ppm via diluting the commercial formulation.
# In this experiment, castor leaves are immersed in each of the previously prepared concentrations of the components for 10 seconds and then left to dry for 60 minutes. Larvae of the second and fourth instars of each checked strain are prepared with treated leaves in gauze-covered glass containers for 72 hrs. An untreated control is made in which leaves are dipped in triton x-100 and distilled water only. Then the preserved leaves were removed & fresh, untreated leaves were provided for 72 hours. Three replicates (10 larvae each) were checked for each concentration. Daily inspection was carried out for all treatments and mortality percentages were recorded 3 days (72 hours) after treatment. The average mortality percentage was corrected employing Abbott's formula. The corrected mortality rate for each of the previously synthesized compounds is statistically calculated according to Finney (1970). Through this rate, the corresponding concentration test lines (LDP lines) are assessed.
smiles,measurement,setting,value
"O=C(NC(=S)Nc1cccc2ccccc12)c1ccco1 [Compound 2, N-(Naphthalen-1-ylcarbamothioyl)furan-2-carboxamide]",Slope,2nd instar larvae,0.97 ± 0.35
same,Slope,4th instar larvae,0.713 ± 0.39
